The series is described as follows: Stability studies. Format: physicochemical.

Consider `CC(C)(C(=O)O)c1ccc(C(O)CCCN2CCC(C(O)(c3ccccc3)c3ccccc3)CC2)cc1.Cl` (racemic) [Fexofenadine Hydrochloride, (±)-4-[1-hydroxy-4-[4-(hydroxydiphenylmethyl)-1-piperidinyl]-butyl]-α,α-dimethylbenzene acetic acid hydrochloride], for which the Stability result was “Stable”.

These data come from patent publication US20030170310A1, “Tasteless, directly compressible, fast-dissolving complexes and pharmaceutical formulations thereof” (priority 2002, published 2003).
